PubChem BioAssay AID652259, Drosophila RNAi Screening Center – 2013
Purpose: 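Genome-wide hunt for genes that control Wingless pathway activity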 (primary screen). Cells: Drosophila clone 8 imaginal disc epithelial cells. Knock-down reagent: long dsRNA against Drosophila genes. Treatment: pathway stimulated by co-transfected Wingless expression plasmid. Detection: 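Firefly luciferase from a tcf-site Wingless reporter, measured alongside co-transfected Renilla luciferase that tracks transfection; pathway stimulated by a Wingless plasmid; the firefly-to-Renilla ratio is not deposited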. Scale: firefly reporter light: higher = more Wg reporter light, before normalisation; Renilla control light: higher = more transfected or surviving cells. Rule for the call: 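Strong candidates differ from their plate mean by at least two out of four per-plate statistical tests; weak candidates meet just one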. Calls: active = candidate regulator (raises or lowers reporter); inactive = not a candidate.
In all, the deposit lists about 22,000 reagents; shown is a random part of those with a known target gene and a result. In the full data, 233 (1.1%) were called active. 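Light values are raw, unnormalised plate reads; the ratio scores behind the reporter calls were not deposited.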 Unmarked entries are inactive. Not given: the amount of reagent, the time to read-out, the dose of the treatment.

Silencing of crim (crimpled) [DRSC10573] resulted in: firefly reporter light, replicate 1 = 9591; Renilla control light, replicate 1 = 4019. Taldo (Transaldolase) [DRSC04320] showed firefly reporter light, replicate 1 = 8790; Renilla control light, replicate 1 = 2690. miple1 (midkine and pleiotrophin 1) [DRSC08722] scored firefly reporter light, replicate 1 = 6556; Renilla control light, replicate 1 = 3303. After knock-down of CG6753 [DRSC16108], the screen gave firefly reporter light, replicate 1 = 22560; Renilla control light, replicate 1 = 6000. CG12715 [DRSC19492] gave firefly reporter light, replicate 1 = 15360; Renilla control light, replicate 1 = 8219. Against CG3706 [DRSC18649] the deposit lists firefly reporter light, replicate 1 = 32992; Renilla control light, replicate 1 = 17968.

tra (transformer) [DRSC11405] showed firefly reporter light, replicate 1 = 7814; Renilla control light, replicate 1 = 3098. Knock-down of TpnC25D (Troponin C at 25D) [DRSC02965] resulted in: firefly reporter light, replicate 1 = 3696; firefly reporter light, replicate 2 = 7200; Renilla control light, replicate 1 = 1209; Renilla control light, replicate 2 = 1675. With knock-down of Bdp1 (B double prime 1) [DRSC03192], the screen gave firefly reporter light, replicate 1 = 10080; Renilla control light, replicate 1 = 2708. Depletion of Rtnl1 (Reticulon-like1) [DRSC00851] came out at: firefly reporter light, replicate 1 = 19780; Renilla control light, replicate 1 = 9456. For Rtnl1 (Reticulon-like1) [DRSC02684] the deposit lists firefly reporter light, replicate 1 = 18629; Renilla control light, replicate 1 = 9188. With knock-down of Rtnl1 (Reticulon-like1) [DRSC03122] the results were firefly reporter light, replicate 1 = 8288; Renilla control light, replicate 1 = 3101.

For Rtnl1 (Reticulon-like1) [DRSC21698], the entry reads firefly reporter light, replicate 1 = 7.50e5; firefly reporter light, replicate 2 = 7.37e5; Renilla control light, replicate 1 = 4.78e5; Renilla control light, replicate 2 = 3.27e5.

2 neighbouring reagents already listed, for reference:
tra (transformer) [DRSC11405] → firefly reporter light, replicate 1 = 7814; Renilla control light, replicate 1 = 3098
TpnC25D (Troponin C at 25D) [DRSC02965] → firefly reporter light, replicate 1 = 3696; firefly reporter light, replicate 2 = 7200; Renilla control light, replicate 1 = 1209; Renilla control light, replicate 2 = 1675

More results follow.
Paip2 (polyA-binding protein interacting protein 2) [DRSC14504] gave firefly reporter light, replicate 1 = 9389; Renilla control light, replicate 1 = 3322. Depletion of Naxe (NAD(P)HX epimerase) [DRSC18251] gave: firefly reporter light, replicate 1 = 15452; Renilla control light, replicate 1 = 8075. With knock-down of CG11756 [DRSC19424] the results were firefly reporter light, replicate 1 = 19273; Renilla control light, replicate 1 = 9083. zda (zonda) [DRSC06936] gave firefly reporter light, replicate 1 = 26442; Renilla control light, replicate 1 = 6839. After knock-down of CR31032 (pseudo) [DRSC22457], the screen gave firefly reporter light, replicate 1 = 5.67e5; firefly reporter light, replicate 2 = 5.82e5; Renilla control light, replicate 1 = 1.77e5; Renilla control light, replicate 2 = 1.44e5. With knock-down of Cap-H2 (Chromosome associated protein H2) [DRSC14908], the record shows firefly reporter light, replicate 1 = 5164; Renilla control light, replicate 1 = 2280.

Depletion of CG14646 [DRSC12232] came out at: firefly reporter light, replicate 1 = 8469; Renilla control light, replicate 1 = 4217. For CG14646 [DRSC21316], the values are firefly reporter light, replicate 1 = 4.79e5; firefly reporter light, replicate 2 = 5.60e5; Renilla control light, replicate 1 = 2.13e5; Renilla control light, replicate 2 = 1.45e5. Veneno [DRSC16537] showed firefly reporter light, replicate 1 = 12720; Renilla control light, replicate 1 = 3396. Silencing of wb (wing blister) [DRSC01375] gave: firefly reporter light, replicate 1 = 11463; Renilla control light, replicate 1 = 2587. Silencing of wb (wing blister) [DRSC03634] resulted in: firefly reporter light, replicate 1 = 1811; firefly reporter light, replicate 2 = 5584; Renilla control light, replicate 1 = 929; Renilla control light, replicate 2 = 2151. Against Ask1 (Apoptotic signal-regulating kinase 1) [DRSC16789], the values are firefly reporter light, replicate 1 = 21479; Renilla control light, replicate 1 = 4795.

For Ask1 (Apoptotic signal-regulating kinase 1) [DRSC21697], the entry reads firefly reporter light, replicate 1 = 7.52e5; firefly reporter light, replicate 2 = 8.60e5; Renilla control light, replicate 1 = 5.12e5; Renilla control light, replicate 2 = 3.58e5.
